Reference: PubChem BioAssay AID540276 (National Center for Advancing Translational Sciences (NCATS), 2011)
About 5,400 (1.8%) of roughly 300,000 compounds were called active. Inconclusive results, whose numbers are uncertain, are shown with a selection of clear calls. The call rests on the fitted dose curve; tested in HEK293 cells. Potencies beside an inconclusive call are fits to weak or partial responses and may not hold up.

experiment: qHTS for inhibitors of binding or entry into cells for Marburg Virus; conditions: Marburg virus pseudotyped entry inhibition, cell reporter; series mostly up to 37.8 µM
Potency means the concentration at half of the fitted maximal effect.

Row | Compound | Potency
1 | Cc1c(C(=O)NC2CCN(Cc3ccccc3)C2)oc2ccc(Br)cc12 (configuration not stated) | inconclusive: 35.5 µM [inhibitor, single point]
2 | CCn1c(N2CCN(CC(=O)c3c(C)n(C)c4ccccc34)CC2)nc2c1c(=O)[nH]c(=O)n2C | inactive
3 | O=c1[nH]cnc2c1sc1nc(-c3ccccc3)c3c(c12)CCCC3 | inconclusive: 10 µM [activator, partial curve]
4 | CC(=O)c1c(C)[nH]c(C(=O)N(C)C(c2ccccc2)c2ccccc2)c1C | inconclusive: 35.5 µM [inhibitor, single point]
5 | CCOC(=O)c1sc(-c2ccc(F)cc2)cc1NC(=O)Nc1ccccc1OC | inconclusive: 35.5 µM [inhibitor, single point]
6 | CC(C)c1ccc(OCC(=O)NC(=S)Nc2ccc3c4c(cccc24)CC3)cc1 | inconclusive: 23.1 µM [inhibitor, partial curve]
7 | COc1cccc(CNC(=O)CCC2CCCN(c3cc(C)nc(N(C)C)n3)C2)c1 (configuration not stated) | inconclusive: 12.6 µM [inhibitor, partial curve, poor fit]
8 | Cc1ccc(-c2nc3ncccc3o2)cc1NC(=O)c1ccccc1 | inactive
9 | O=c1oc(Nc2ccc(F)cc2)nc2ccccc12 | inactive
10 | O=C(O)c1ccc(NC(=O)c2cccc(NC(=O)c3cccs3)c2)cc1 | inactive
11 | CCOC(=O)C(NC(=O)c1ccccc1)(Nc1cc(C)on1)C(F)(F)F (configuration not stated) | inactive
12 | CC(C)C(=O)Nc1nc2ccc(S(C)(=O)=O)cc2s1 | inactive
13 | O=C(NN=C1CCCCCC1)c1cccs1 | inactive
14 | Nc1nc2ccccc2n1C(=O)c1cccs1 | inconclusive: 22.4 µM [inhibitor, single point]
15 | CNc1cccnc1C=NNC(N)=S | active: 1.26 µM
16 | Cc1ccccc1-c1nnc(CN2CCC(C)CC2)o1 | inconclusive: 5.01 µM [activator, full curve]
17 | Cc1ccc2nc(-c3cccnc3)c(NC3CCCCC3)n2c1 | inactive
18 | O=C(Oc1ccc(C(=S)N2CCC(O)CC2)cc1)c1ccc(Cl)cc1 | inactive
19 | CCCOc1c(OC)cccc1C1CC(=O)Nc2cc3c(cc21)OCCO3 (configuration not stated) | inconclusive: 14.1 µM [inhibitor, single point]
20 | CC(C)(C)c1cc(NC(=O)CSc2nnc(NCc3ccccc3)s2)n(-c2ccccc2)n1 | inconclusive: 23.1 µM [inhibitor, partial curve, poor fit]
21 | Cc1ccc(NS(=O)(=O)c2ccc3c(c2)N(C)C(=O)CC(=O)N3C)cc1Cl | inactive
22 | CCc1c(C)nc2c(C#N)c[nH]n2c1=O | inactive
23 | CCN(C(C)=O)c1nnc(CSc2nc3ccccc3s2)s1 | inactive
24 | CC(C)c1ccc(/C=N/N2CCCCC2)cc1 | inconclusive: 6.31 µM [activator, single point]

Row | Compound | Potency
25 | Cc1c(NC(=O)CN2C(=O)NC(C)(c3ccccc3)C2=O)c(=O)n(-c2ccccc2)n1C (configuration not stated) | inconclusive: 0.891 µM [activator, full curve]
26 | O=C(C1CCC(CNS(=O)(=O)c2ccc(Br)s2)CC1)N1CCN(c2ccc(F)cc2)CC1 (configuration not stated) | inconclusive: 2.82 µM [inhibitor, full curve]
27 | CCCC1/C(=N/O)CC(c2ccccc2)NC1c1ccccc1 (configuration not stated) | inconclusive: 11.2 µM [inhibitor, partial curve]
28 | Cc1cc(C)c(OCC(=O)N/N=C/c2ccc3c(c2)OCO3)c(C)c1 | inactive
29 | O=C(CCc1ccccc1)Nc1cccc(NC(=O)CCc2ccccc2)c1 | inactive
30 | Cc1ccc(Nc2nc(N)c([N+](=O)[O-])c(NCc3ccco3)n2)cc1 | inconclusive: 29.1 µM [inhibitor, partial curve, poor fit]
31 | CC(C)CNC(=O)C1CCN(Cc2ccc(OCc3ccccc3)cc2)CC1 | inconclusive: 35.5 µM [inhibitor, single point]
32 | C=CCNC(=O)COc1ccc(S(=O)(=O)N2CCCC2)cc1 | inactive
33 | COc1ccc(-c2nc3n(n2)C(c2ccccc2OC)C(C(=O)Nc2cccnc2)=C(C)N3)cc1 (configuration not stated) | inconclusive: 8.91 µM [inhibitor, partial curve, poor fit]
34 | COc1ccccc1NC(C#N)c1ccccc1OCc1ccccc1 (configuration not stated) | inconclusive: 6.51 µM [inhibitor, partial curve]
35 | CC1CCCCN1C(=O)CSc1nnc(-c2cccnc2)o1 (configuration not stated) | inconclusive: 5.62 µM [activator, single point]
36 | COc1ccc(NC(=S)N2CCC(C(O)(c3ccccc3)c3ccccc3)CC2)cc1 | inconclusive: 0.631 µM [activator, single point]
37 | COc1ccc(NC(=O)CCSc2cc(C)c3ccccc3n2)cc1 | inconclusive: 7.08 µM [activator, partial curve, poor fit]
38 | OCC1CCN(Cc2cn(Cc3ccccc3)nc2-c2cc3ccccc3o2)CC1 | inconclusive: 10 µM [inhibitor, partial curve, poor fit]
39 | O=C(NCCNC(=O)c1cc(OCC(F)(F)F)ccc1OCC(F)(F)F)Nc1cccc(C(F)(F)F)c1 | inconclusive: 29.1 µM [inhibitor, single point]
40 | C(=C/c1nccc2c1[nH]c1ccccc12)/c1ccc2c(c1)OCO2 | inconclusive: 35.5 µM [inhibitor, single point]
41 | O=C(CN1CCN(c2ccc(O)cc2)CC1)Nc1ccc(S(=O)(=O)N2CCCC2)cc1 | inactive
42 | O=c1cnn(Cc2c(Cl)cccc2Cl)c2ccccc12 | inconclusive: 5.62 µM [activator, single point]
43 | Cc1cc(NC(=O)c2cncc(Br)c2)n(-c2ccccn2)n1 | inconclusive: 1.26 µM [inhibitor, single point]
44 | NC1(N)OC(CN2C(=O)C3=C(CCCC3)C2=O)CS1 (configuration not stated) | inactive
45 | CN(CC(=O)Nc1cccc(F)c1)C(=O)Cc1n[nH]c(=O)c2ccccc12 | inactive
46 | CC(=O)Nc1ccc(NC(=O)COC(=O)Cn2cnc3ccccc32)cc1 | inactive
47 | CC(C)CCOP(=O)(c1ccc(N(C)C)cc1)C(O)c1ccc(Cl)cc1Cl (configuration not stated) | inconclusive: 3.16 µM [inhibitor, partial curve, poor fit]

Nos. 29 to 31, reprinted for reference:
Row | Compound | Potency
29 | O=C(CCc1ccccc1)Nc1cccc(NC(=O)CCc2ccccc2)c1 | inactive
30 | Cc1ccc(Nc2nc(N)c([N+](=O)[O-])c(NCc3ccco3)n2)cc1 | inconclusive: 29.1 µM [inhibitor, partial curve, poor fit]
31 | CC(C)CNC(=O)C1CCN(Cc2ccc(OCc3ccccc3)cc2)CC1 | inconclusive: 35.5 µM [inhibitor, single point]
